Measurements reported in doi:10.1101/2023.03.30.23287962.
No constants are given. Whether binding was seen depends on the method and setting. In cells and extracts the contact can be indirect. Some entries that bind do so weakly or less than the wild type.

Chains of the proteins cited; added tags and fusions are not shown.
UniProt Q8TAQ2: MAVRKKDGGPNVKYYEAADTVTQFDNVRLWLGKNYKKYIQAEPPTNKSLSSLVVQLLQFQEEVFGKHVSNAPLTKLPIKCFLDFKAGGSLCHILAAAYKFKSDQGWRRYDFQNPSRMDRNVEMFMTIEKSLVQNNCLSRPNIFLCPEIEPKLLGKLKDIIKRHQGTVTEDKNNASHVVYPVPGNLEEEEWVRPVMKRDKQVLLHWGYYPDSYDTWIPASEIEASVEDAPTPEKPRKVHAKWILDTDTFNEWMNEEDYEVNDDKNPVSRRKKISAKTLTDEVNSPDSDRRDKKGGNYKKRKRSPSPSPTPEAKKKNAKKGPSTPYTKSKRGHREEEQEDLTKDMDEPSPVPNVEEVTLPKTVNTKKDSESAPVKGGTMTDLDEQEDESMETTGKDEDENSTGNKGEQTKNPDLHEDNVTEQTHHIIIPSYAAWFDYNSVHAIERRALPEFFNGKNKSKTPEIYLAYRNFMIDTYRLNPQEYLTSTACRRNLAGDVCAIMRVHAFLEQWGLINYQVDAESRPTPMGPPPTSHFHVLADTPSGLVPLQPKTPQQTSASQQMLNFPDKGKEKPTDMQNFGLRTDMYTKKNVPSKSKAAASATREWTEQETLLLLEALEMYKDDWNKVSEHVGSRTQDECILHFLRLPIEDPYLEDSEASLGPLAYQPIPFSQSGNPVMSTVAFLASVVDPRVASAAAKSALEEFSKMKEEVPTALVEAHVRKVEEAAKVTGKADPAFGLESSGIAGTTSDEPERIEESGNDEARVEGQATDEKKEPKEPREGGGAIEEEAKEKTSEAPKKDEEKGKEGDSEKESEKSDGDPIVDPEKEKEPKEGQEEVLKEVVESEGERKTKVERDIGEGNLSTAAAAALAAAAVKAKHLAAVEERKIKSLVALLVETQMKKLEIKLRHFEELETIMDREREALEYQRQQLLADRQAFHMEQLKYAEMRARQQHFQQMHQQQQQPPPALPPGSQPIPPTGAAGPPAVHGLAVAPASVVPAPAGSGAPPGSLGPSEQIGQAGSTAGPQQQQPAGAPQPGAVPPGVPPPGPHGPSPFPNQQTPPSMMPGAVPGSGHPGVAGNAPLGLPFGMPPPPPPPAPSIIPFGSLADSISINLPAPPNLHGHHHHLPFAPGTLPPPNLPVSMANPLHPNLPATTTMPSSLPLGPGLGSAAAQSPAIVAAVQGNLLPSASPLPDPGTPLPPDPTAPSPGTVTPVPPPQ
UniProt P51532: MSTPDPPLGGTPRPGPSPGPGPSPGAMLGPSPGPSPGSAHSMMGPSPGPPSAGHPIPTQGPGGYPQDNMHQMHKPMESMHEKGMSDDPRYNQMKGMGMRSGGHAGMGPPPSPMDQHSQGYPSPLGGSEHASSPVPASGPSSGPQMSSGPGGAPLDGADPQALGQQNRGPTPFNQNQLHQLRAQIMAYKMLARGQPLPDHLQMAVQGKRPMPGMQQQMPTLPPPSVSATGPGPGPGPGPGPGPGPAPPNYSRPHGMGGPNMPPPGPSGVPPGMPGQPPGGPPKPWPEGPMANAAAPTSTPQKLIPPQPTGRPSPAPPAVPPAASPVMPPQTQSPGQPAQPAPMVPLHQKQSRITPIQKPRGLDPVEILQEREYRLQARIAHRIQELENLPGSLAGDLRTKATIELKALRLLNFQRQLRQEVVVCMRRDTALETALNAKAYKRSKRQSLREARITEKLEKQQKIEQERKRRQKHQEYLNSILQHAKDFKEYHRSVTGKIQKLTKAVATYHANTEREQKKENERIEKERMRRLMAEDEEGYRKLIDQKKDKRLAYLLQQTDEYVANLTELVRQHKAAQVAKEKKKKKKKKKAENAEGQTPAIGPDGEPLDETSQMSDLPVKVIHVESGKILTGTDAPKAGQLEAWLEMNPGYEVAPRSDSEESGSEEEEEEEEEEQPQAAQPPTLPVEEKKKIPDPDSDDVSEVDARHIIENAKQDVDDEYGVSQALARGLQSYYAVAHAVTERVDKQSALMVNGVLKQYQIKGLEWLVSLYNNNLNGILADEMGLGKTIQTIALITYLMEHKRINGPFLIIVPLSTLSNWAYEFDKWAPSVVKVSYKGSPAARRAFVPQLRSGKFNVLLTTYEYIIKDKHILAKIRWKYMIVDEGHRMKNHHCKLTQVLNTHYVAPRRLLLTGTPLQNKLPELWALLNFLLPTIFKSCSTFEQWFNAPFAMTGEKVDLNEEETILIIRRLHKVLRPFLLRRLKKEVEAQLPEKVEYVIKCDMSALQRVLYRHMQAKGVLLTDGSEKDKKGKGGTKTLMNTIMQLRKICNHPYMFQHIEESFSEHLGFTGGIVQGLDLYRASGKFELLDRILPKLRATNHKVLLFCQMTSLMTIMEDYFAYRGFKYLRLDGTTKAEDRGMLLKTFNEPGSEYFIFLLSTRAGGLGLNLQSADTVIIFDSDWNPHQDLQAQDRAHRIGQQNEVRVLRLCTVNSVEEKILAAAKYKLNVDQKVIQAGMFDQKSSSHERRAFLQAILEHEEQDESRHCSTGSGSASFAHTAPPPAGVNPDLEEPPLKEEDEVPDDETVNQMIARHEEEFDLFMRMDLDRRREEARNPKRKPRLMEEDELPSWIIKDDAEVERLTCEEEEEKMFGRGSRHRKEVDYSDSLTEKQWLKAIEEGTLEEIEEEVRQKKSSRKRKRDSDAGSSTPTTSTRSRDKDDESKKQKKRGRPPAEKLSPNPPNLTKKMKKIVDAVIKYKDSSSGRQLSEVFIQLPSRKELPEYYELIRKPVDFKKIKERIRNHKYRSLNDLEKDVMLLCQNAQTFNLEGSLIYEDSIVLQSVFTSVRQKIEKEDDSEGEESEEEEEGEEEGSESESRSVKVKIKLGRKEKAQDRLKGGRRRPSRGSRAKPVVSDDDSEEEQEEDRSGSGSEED

Legend:
[1] = target: FLAG-tagged SMARCC2 (wildtype) (human) (UniProt Q8TAQ2); experiment: co-IP
[2] = target: FLAG-tagged SMARCC2 (wildtype) (human) (UniProt Q8TAQ2); experiment: proximity ligation

Question: Which binding [1] does the source give for SMARCA4 (from UniProt P51532 1-1647) here?
Answer: binds

Question: And the binding [2]?
Answer: binds
